Binding data for 3 substances are collected here from article PMC6538723.

Results are given in words; binding and its absence hold for the method and conditions named. In cells and extracts the contact can be indirect. Some entries that bind do so weakly or less than the wild type.

The target in assay [1] is HA-p53 (UniProt P04637). Put plainly: co-IP; Hek293 cells co-transfected with 3 ug HA-p53, 3 ug Myc-MDM2C464A and increasing amounts (0, 3, 6, 9 ug) of EGFP-ZCCHC10 plasmid; 24 h post transfection; IP with rabbit anti-HA, WB with anti-HA, anti-Myc and anti-EGFP.
For assay [2], the target named is HA-p53 (UniProt P04637). In words: co-IP; overexpressed proteins in Hek293 cells co-transfected with HA-p53 and Myc-Zh10 (or Myc-mtZh10); lysates precipitated with the indicated antibody, WB.
Assay [3] concerns the target p53, endogenous wild-type protein in Beas-2b cells (human (endogenous in Beas-2b)) (UniProt P04637). In words: co-IP; endogenous proteins in Beas-2b cells; lysates precipitated with the indicated antibody, immune complexes analysed by WB.

With “EGFP-ZCCHC10 (from UniProt Q8TBK6-1 1-192)”, the binding result in the assay with HA-p53 [1] is reported as “binds”.
For the substance “Myc-ZCCHC10 (from UniProt Q8TBK6-1 1-192)”, in the assay with HA-p53 [2], the binding result is listed as “binds”.
In the case of “ZCCHC10 (zinc finger CCHC-type containing 10), endogenous protein in Beas-2b cells (from UniProt Q8TBK6-1 1-192)”, the binding result in assay [3] is recorded as “binds”.
